Patent publication US7906486B2, “Method of treating or preventing tissue deterioration, injury or damage due to disease of mucosa” (SciClone Pharmaceuticals, Inc., priority 2007, dated 2011)
Several values for one entry are separate records, joined by “and”; a condition that tells them apart may be missing. Equal entries are not always repeated. Further values from the same series stand in other lists.

Test system: oral mucositis induced by fractionated radiation (eight doses of 7.5 Gy, left buccal cheek pouch)
Test: Oral mucositis induced by fractionated radiation in hamsters, mucositis scoring (Example 3, SCI-03)
Format: in vivo, Syrian Golden Hamsters
Parameters: key: 0: Pouch completely healthy. No erythema or vasodilation.; 1: Light to severe erythema and vasodilation. No erosion of mucosa.; 2: Severe erythema and vasodilation. Erosion of superficial aspects of mucosa leaving denuded areas. Decreased stippling of mucosa.; 3: Formation of off-white ulcers in one or more places. Ulcers may have a yellow/gray due to pseudomembrane. Cumulative size of ulcers should equal about ¼ of the pouch. Severe erythema and vasodilation.; 4: Cumulative seize of ulcers should equal about ½ of the pouch. Loss of pliability. Severe erythema and vasodilation.; 5: Virtually all of pouch is ulcerated. Loss of pliability (pouch can only partially be extracted from mouth)
Description: The fractionated radiation model in hamsters, developed by the Principal Investigator, has proven to be an accurate, efficient and cost-effective technique to provide a preliminary evaluation of anti-mucositis compounds. In this model, hamsters receive 8 doses of 7.5 Gy to the left cheek pouch on days 0, 1, 2, 3, […], rather than the single dose of 40 Gy on day 0 that is used in acute radiation studies. The rationale for using this scheduling for the radiation is that it more closely resembles the clinical courses of radiotherapy given to cancer patients. The course of mucositis in this model is well defined and results in peak mucositis scores approximately 14-16 days following radiation. Mortality (generally from the side effects of anesthesia) in the fractionated radiation model is slightly higher than that seen in the acute radiation model and group sizes are increased (to 10 per group) to allow for this.
(§1) Forty (40) male Syrian Golden Hamsters were given eight doses of radiation of 7.5 Gy each directed to their left buccal cheek pouch on days 0, 1, 2, 3, 6, 7, 8 and 9. This was accomplished by anesthetizing the animals and everting the left buccal pouch, while protecting the rest of the animal's bodies with a lead shield. Test materials were given by sub-cutaneous injection once daily as detailed in Table 9. Mucositis was evaluated clinically starting on day 7, and continuing on alternate days until day 35. Test articles were given as outlined Table 9, Groups 1 and 2 were dosed from Day −1 to Day 29, Group 3 was dosed on the days of radiation only, Group 4 was dosed on the days between Day −15 and Day 29 on which no radiation is given (Day −1, Day 4, Day 5 and Day 10 to Day 29).
The effect on mucositis of each drug treatment compared to placebo was assessed according to the following parameters:
On each evaluation day, the number of animals with a blinded mucositis score of ≧3 in each drug treatment group was compared to the control group. Differences were compared on a cumulative basis and statistical significance was determined by chi-square analysis. Efficacy, in this analysis, is defined by a significant reduction in the number of days that a group of animals had ulcerations (scores ≧3) when compared to the control group.
For each evaluation day the scores of the control group were compared to those of the treated groups using non-parametric rank sum analysis. Treatment success was considered as a statistically significant lowering of scores in the treated group on 2 or more days from day 6 to day 28.
as §1, with “daily at 8:00 am” for “daily”, “9. […]” for “9. Mucositis was evaluated clinically starting on day 7, and continuing on alternate days until day 35.”, “2 was” for “2 were”, “radiation only (days 0-3 and days 6-10),” for “radiation only,”, “Day −1” for “Day −15”, “Day 4 to” for “Day 4,”
Radiation was generated with a Philips 160 kVp (kilovolt potential) (18.75-ma) X-ray source at a focal distance of 30 cm, with a 3.0 mm hardened Al filtration system. Irradiation was targeted to the left buccal pouch mucosa at a rate of 3.32 Gy/minute. […] Using this calibration, the energy received by each animal at each radiation dose was approximately 64.5 nC (nanoCoulombs) at each time point. Prior to irradiation, animals were anesthetized with an intraperitoneal injection of ketamine (160 mg/kg) and xylazine (8 mg/kg). The left buccal pouch was everted, fixed and isolated using a lead shield.
The mucositis score, weight change and survival were measured throughout the study as described above. […]

N[C@H](CCC(=O)N[C@@H](Cc1c[nH]c2ccccc12)C(=O)O)C(=O)O [SCV-07, γ-D-glutamyl-L-tryptophan] was tested, and the Mucositis score (Group 2, day 13, individual animals (two score lines each)) was 1, the Mucositis score (Group 2, day 29, individual animals (two score lines each)) was 0 and the Mucositis score (Group 2, day 33, individual animals (two score lines each)) was 0. The Mucositis score (Group 3, day 7, individual animals (two score lines each)) was 0, the Mucositis score (Group 3, day 9, individual animals (two score lines each)) was 1 (12×) and 0 (6×) and the Mucositis score (Group 3, day 11, individual animals (two score lines each)) was 1. The Mucositis score (Group 3, day 15, individual animals (two score lines each)) was 3, the Mucositis score (Group 3, day 17, individual animals (two score lines each)) was 3 and the Mucositis score (Group 3, day 19, individual animals (two score lines each)) was 3. The Mucositis score (Group 3, day 21, individual animals (two score lines each)) was 3, the Mucositis score (Group 3, day 23, individual animals (two score lines each)) was 3 and the Mucositis score (Group 3, day 25, individual animals (two score lines each)) was 1. The Mucositis score (Group 3, day 29, individual animals (two score lines each)) was 1 (16×) and 0 (4×), the Mucositis score (Group 3, day 31, individual animals (two score lines each)) was 0 (8×) and 1 (8×) and the Mucositis score (Group 3, day 33, individual animals (two score lines each)) was 1 (16×) and 0 (4×). The Mucositis score (Group 3, day 35, individual animals (two score lines each)) was 1 (14×) and 0 (6×), the Mucositis score (Group 4, day 7, individual animals (two score lines each)) was 0 and the Mucositis score (Group 4, day 9, individual animals (two score lines each)) was 0 (2×) and 1 (18×). For the same compound, the Mucositis score (Group 4, day 11, individual animals (two score lines each)) was 1, the Mucositis score (Group 4, day 13, individual animals (two score lines each)) was 1 and the Mucositis score (Group 4, day 15, individual animals (two score lines each)) was 3. The Mucositis score (Group 4, day 17, individual animals (two score lines each)) was 3, the Mucositis score (Group 4, day 19, individual animals (two score lines each)) was 3 and the Mucositis score (Group 4, day 21, individual animals (two score lines each)) was 3. For the same compound, the Mucositis score (Group 4, day 23, individual animals (two score lines each)) was 3, the Mucositis score (Group 4, day 25, individual animals (two score lines each)) was 3 and the Mucositis score (Group 4, day 27, individual animals (two score lines each)) was 3. For the same compound, the Mucositis score (Group 4, day 29, individual animals (two score lines each)) was 1 (12×) and 0 (6×), the Mucositis score (Group 4, day 31, individual animals (two score lines each)) was 0 (8×) and 1 (10×) and the Mucositis score (Group 4, day 33, individual animals (two score lines each)) was 1 (14×) and 0 (4×). The Mucositis score (Group 4, day 35, individual animals (two score lines each)) was 0 (6×) and 1 (14×).
